Entries after “also recorded” stand apart in the source; their conditions may differ. For at least one compound, name, drawing or mass did not settle the structure.
What was measured:
[1] = tested on: BT74 cancer stem cells; assay: Neurosphere formation / growth assay; type: cell-based
[2] = tested on: primary adult GBM cells isolated fresh from BCCH; assay: Growth of primary GBM cells; type: cell-based

With Cn1nnc2c(C(N)=O)ncn2c1=O [TMZ, temozolomide, reference compound] the “sensitivity of BT74 cells” value [1] was “do not show significant sensitivity” and the “effect on growth of primary GBM cells” value [2] was “essentially has no effect; also recorded: completely resistant”.
